# Test system: Barrett's esophagus progenitor cells
# Assay: Expression microarray: Barrett's esophagus progenitor cells vs gastric cardia progenitor cells (Table YY)
# Format: cell-based, human
# Conditions: mRNA expression microarray, clonal Barrett's esophagus progenitor cells vs clonal gastric cardia progenitor cells
substance,measurement,setting,value
FGF2,Ratio (Barrett's vs. Cardia),,2.762
same,Fold-Change (Barrett's vs. Cardia),negative = lower in Barrett's,2.762

# Source: US20140255430A1, “METHODS AND REAGENTS FOR DETECTION AND TREATMENT OF ESOPHAGEAL METAPLASIA” (NATIONAL UNIVERSITY OF SINGAPORE, priority 2010, published 2014)
